According to the supplement of paper PMC10735217:
Where a name gives a salt, the structure may show the parent alone. Some of the results follow. Repeats in this data set agree poorly, so a single value says little.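 Human kidney-derived cells stably carry a construct in which eight TEAD-binding elements drive luciferase, measured by luminescence in a drug-repurposing library screen. A hit is any compound whose signal exceeds the plate mean by more than five robust Z scores.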

System: HEK293A TEAD-LUC reporter
Experiment: TEAD-luciferase reporter activity (YAP activation), robust Z score vs plate; higher = stronger YAP/TEAD activation
Conditions: 24 h

SMILES | TEAD-luciferase reporter activity (compound concentration: 200 nM) | TEAD-luciferase reporter activity (compound concentration: 2 uM) | TEAD-luciferase reporter activity (compound concentration: 10 uM)
NC(=O)c1nc[nH]c1N | inactive: 0.126 | inactive: -0.643 | inactive: 0.871
CCn1c(=Cc2ccccn2)sc(=C2Sc3ccccc3N2C)c1=O | inactive: -1.13 | inactive: 0.53 | inactive: -0.364
O=S(=O)(Nc1cc(Cl)c(Oc2cnc3ccccc3c2)c(Cl)c1)c1ccc(Cl)cc1Cl | inactive: -2.99 | inactive: -1.71 | inactive: 0.351
O=C(O)c1ccc(Cl)cc1Cl [Analben] | inactive: 1.63 | inactive: -0.419 | inactive: -0.0368
CCN1CCN(Cc2ccc(Nc3ncc(F)c(-c4cc(F)c5nc(C)n(C(C)C)c5c4)n3)nc2)CC1 [abemaciclib] | inactive: -1.53 | inactive: -2.43 | inactive: -1.24
CCC(CC)CC1(C(=O)Nc2ccccc2SC(=O)C(C)C)CCCCC1 [dalcetrapib] | inactive: -0.696 | inactive: -0.046 | inactive: 0.533
CC1(C)S[C@@H]2[C@H](NC(=O)/C(=N\OC3CCCC3)c3csc(N)n3)C(=O)N2[C@H]1C(=O)O | inactive: 0.623 | inactive: -0.664 | inactive: -0.0337
CC(C)CC(N)C(=O)NC(Cc1ccccc1)C(=O)NCC(=O)NCC(=O)NC(Cc1ccc(O)cc1)C(=O)O (configuration not stated) | inactive: -1.05 | inactive: -1.33 | inactive: -0.382
CC(C)CCC[C@@H](C)[C@H]1CC[C@H]2[C@@H]3CC=C4C[C@@H](OS(=O)(=O)O)CC[C@]4(C)[C@H]3CC[C@]12C | inactive: 1.06 | inactive: 0.0939 | inactive: -1.3
C[C@]12CC[C@@H]3c4ccc(OS(=O)(=O)O)cc4CC[C@H]3[C@@H]1CCC2=O [Estrone 3-sulfate] | active: 8.21 | inactive: 3.02 | inactive: 0.334
COc1ccc2c(c1)c(-c1ccccc1)nc(=O)n2CC(F)(F)F | inactive: 0.443 | inactive: -1.23 | inactive: -1.44
COc1ccc(C2N(c3ccc(OC)cc3)C(=O)C23CCCCC3)cc1 (configuration not stated) | inactive: -0.882 | inactive: 1.04 | inactive: 0.322
CN1CCC2(CC1)CCN(C(=O)CCC(=O)c1ccc(F)cc1)C2 | inactive: -2.19 | inactive: 0.771 | inactive: 1.09
O=C(CN1CCC(CN2Cc3ccccc3C2=O)CC1)c1ccc(F)cc1 | inactive: -0.399 | inactive: -0.577 | inactive: -0.599
CCOC(=O)COc1ccc2c(C)c(CCN(CC)CC)c(=O)oc2c1 | inactive: -1.8 | inactive: -0.545 | inactive: 0.758
COc1cc(C(C)C)ccc(CN2CCN(C(c3ccc(F)cc3)c3ccc(F)cc3)CC2)c1=O | inactive: 0.386 | inactive: -0.996 | inactive: 0.0579
C[N+](C)(C)CC(=O)O [betaine] |  | inactive: -0.281 | 
C[N+](C)(C)CC(=O)O | inactive: 0.105 |  | inactive: -0.894
C=CCOC(=O)N[C@@H](CC(=O)O)C(=O)COc1cc2ccccc2cc1-c1ncc[nH]1 | inactive: -0.0228 | inactive: 0.773 | inactive: -1.12

Single records, from the list above:
C[N+](C)(C)CC(=O)O [betaine] as listed: TEAD-luciferase reporter activity (compound concentration: 2 uM): inactive: -0.281
C=CCOC(=O)N[C@@H](CC(=O)O)C(=O)COc1cc2ccccc2cc1-c1ncc[nH]1 as listed: TEAD-luciferase reporter activity (compound concentration: 200 nM): inactive: -0.0228; TEAD-luciferase reporter activity (compound concentration: 2 uM): inactive: 0.773; TEAD-luciferase reporter activity (compound concentration: 10 uM): inactive: -1.12
CC1(C)S[C@@H]2[C@H](NC(=O)/C(=N\OC3CCCC3)c3csc(N)n3)C(=O)N2[C@H]1C(=O)O as listed: TEAD-luciferase reporter activity (compound concentration: 200 nM): inactive: 0.623; TEAD-luciferase reporter activity (compound concentration: 2 uM): inactive: -0.664; TEAD-luciferase reporter activity (compound concentration: 10 uM): inactive: -0.0337

The results go on:

SMILES | TEAD-luciferase reporter activity (compound concentration: 200 nM) | TEAD-luciferase reporter activity (compound concentration: 2 uM) | TEAD-luciferase reporter activity (compound concentration: 10 uM)
CC12C[C@H](O)[C@@]3(F)C(CCC4=CC(=O)C=CC43C)[C@@H]1C[C@H]1O[C@@](C)(c3ccccc3)O[C@]12C(=O)CO (some centres not stated) | inactive: -0.456 | inactive: 1.4 | inactive: -1.53
N#Cc1ccc(C(F)(c2ccc(C#N)cc2)n2cncn2)cc1 | inactive: -1.17 | inactive: 0.956 | active: 6.21
Cc1c(NC(=O)c2cc3c(s2)CCCC3)cccc1-c1cn(C)c(=O)c(Nc2ccc(C3C(=O)N(C)CCN3C)cc2)n1 (configuration not stated) | inactive: -1 | inactive: -0.102 | active: 6.5
NCC(=O)N1CCC[C@H]1C(=O)NCC(N)=O | inactive: 1.45 | inactive: -1.34 | inactive: 0.353
O=C(/C=C/c1ccc(O)cc1)C1C(=O)C([C@@H]2O[C@H](CO)[C@@H](O)[C@H](O)[C@H]2O)C(=O)C(O)([C@@H]2O[C@H](CO)[C@@H](O)[C@H](O)[C@H]2O)C1=O (some centres not stated) [Hydroxysafflor yellow A] | inactive: 2.03 | inactive: -0.7 | inactive: 2.13
O=C(NCC1CC1)C1CCN(c2nc3ncccc3o2)CC1 | inactive: -0.981 |  | inactive: 0.565
N#C/N=C(\NCCCCCCOc1ccc(Cl)cc1)Nc1ccncc1 | inactive: -0.792 | active: 10.2 | active: 5.37
Fc1cc(F)c2c(c1)CC(n1c(CCNCc3ccccc3)c[nH]c1=S)CO2 (configuration not stated) [Zamicastat] | inactive: -0.821 | inactive: 0.123 | inactive: 0.576
CC(C)=CCC[C@@](C)(O)[C@H]1CC[C@]2(C)[C@@H]1[C@H](O)C[C@@H]1[C@@]3(C)CC[C@H](O)C(C)(C)[C@@H]3[C@@H](O)C[C@]12C [Protopanaxatriol] | inactive: 1.11 | inactive: -1.89 | inactive: 1.11
C[C@@H](O)[C@H]1C(=O)N2C(C(=O)O)=C(SC3CN(C4=NCCS4)C3)[C@H](C)[C@H]12 | inactive: 0.165 | inactive: 0.378 | inactive: 2.46
CC(C)C(CS)C(=O)N[C@@H](Cc1ccc(-n2cccn2)cc1)C(=O)O (some centres not stated) | inactive: 1.95 | inactive: -0.982 | inactive: -0.144
NC(=O)c1cc(-c2cc(F)cc(Cl)c2)n(-c2ccc(F)c(Cl)c2)n1 | inactive: -0.367 | inactive: -1.35 | inactive: -0.899
CC(C)=CCOc1cc(NC(=S)c2ccsc2C)ccc1Cl | inactive: 1.17 | inactive: -0.703 | inactive: 0.353
CCCCC1(CCCC)CS(=O)(=O)c2ccc(N(C)C)cc2[C@@H](c2ccc(OCc3ccc(C[N+]45CCN(CC4)CC5)cc3)cc2)[C@H]1O [Lopixibat chloride] | inactive: -0.689 | inactive: 2.53 | inactive: 0.58
O=C(CCCN1CCC(C(O)c2ccc(F)cc2)CC1)c1ccc(F)cc1 (configuration not stated) [dihydrolenperone] | inactive: 1.57 | inactive: -0.0156 | inactive: 0.743
COC[C@H](C)Oc1cc(Oc2cnc(C(=O)N3CCC3)cn2)cc(C(=O)O)c1 | inactive: -0.686 | inactive: 0.308 | inactive: -0.311
CC(=O)N1C[C@H](O)C[C@H]1C(=O)O | inactive: 4.02 | inactive: 2.19 | inactive: -1.66
Cc1ccc(C(=O)C(C)CN2CCCCC2)cc1 (configuration not stated) [tolperisone gel, Gedeon Richter] | inactive: -1.23 |  | inactive: -0.594
N=C(N)c1ccc(/C=C/c2ccc(C(=N)N)cc2)cc1 | inactive: -0.508 | inactive: 2.11 | inactive: -0.89

SMILES | TEAD-luciferase reporter activity (compound concentration: 200 nM) | TEAD-luciferase reporter activity (compound concentration: 2 uM) | TEAD-luciferase reporter activity (compound concentration: 10 uM)
Cc1cc(OP(=O)(O)O)c2ccccc2c1OP(=O)(O)O [Menadiol sodium diphosphate] | inactive: 0.112 | inactive: 1.34 | inactive: 0.625
CC#C[C@@H](CC(=O)O)c1ccc(OCc2cccc(-c3ccc(C(F)(F)F)cc3)c2)cc1 | inactive: -2.18 | inactive: -0.444 | inactive: 0.922
FC(F)(c1ccc2ncccc2c1)c1nnc2ccc(-c3ccncc3)nn12 | inactive: -0.294 | inactive: -0.853 | inactive: -0.849
Cc1cccc(C)c1NC(=O)CN1CCN(CCCC(c2ccc(F)cc2)c2ccc(F)cc2)CC1 [lidoflazine] | inactive: -0.665 | inactive: 0.87 | inactive: -1.3
CCCc1cc(C(=O)O)ccc1OC(C(=O)NS(=O)(=O)c1ccc(C(C)C)cc1)c1ccc2c(c1)OCO2 (configuration not stated) | inactive: 1.31 | inactive: -0.465 | inactive: -0.678
COC(=O)CCNC(=O)[C@H](O)C(C)(C)COP(=O)(N[C@@H](C)C(=O)OC)Oc1ccccc1 (some centres not stated) | inactive: -1.37 | inactive: 1.82 | inactive: -0.163
CCCCCCCCCCCCCCC[C@@H](O)[C@H](C)N | inactive: 0.39 | inactive: -0.765 | inactive: -1.26
O=C1CC(c2c[nH]c3ccc(F)cc23)C(=O)N1 (configuration not stated) | inactive: 0.702 | inactive: -1.6 | inactive: 1.46
CO/N=C(\C(=O)N[C@@H]1C(=O)N2C(C(=O)O)=C(CSc3cnns3)CS[C@H]12)c1csc(N)n1 [Cefuzonam] | inactive: 0.818 | inactive: 0.0925 | inactive: 1.95
CC(Cl)C(Cl)(Cl)C(O)O (configuration not stated) | inactive: -1.26 | inactive: -2.29 | inactive: 1.67
C[N+](C)(CC(=O)Nc1ccccc1)CC(=O)Nc1ccccc1 | inactive: -2.31 | inactive: 1.03 | inactive: 0.309
CCN(CC)CCNc1ccc2ncn3c4ccc(O)cc4c(=O)c1c23 [Imidazoacridi] | inactive: -0.219 | inactive: -0.294 | inactive: -1.5
COc1ccc(C(CC(N)=O)N2C(=O)c3ccccc3C2=O)cc1OC1CCCC1 (configuration not stated) | inactive: -1.67 | inactive: -0.934 | inactive: -0.358
CC(C)CCCC(C)N (configuration not stated) |  | inactive: -1.3 | 
CC(C)CCCC(C)N (configuration not stated) [Octodrine] | inactive: 0.281 |  | inactive: -1.18
CO[C@@H]1CC(C)(C)C[C@H]2C3=CCC4[C@@]5(C)CC[C@H](O)[C@](C)(CO)C5CC[C@@]4(C)C3(C)CC[C@@]12C (some centres not stated) | inactive: -1.56 | inactive: -0.519 | inactive: -0.402
CC(C)NC(=N)NC(=N)Nc1ccc(Cl)cc1 [Proguanil hydrochloride] |  | inactive: -1.48 | 
CC(C)NC(=N)NC(=N)Nc1ccc(Cl)cc1 [Proguanil] | inactive: -1.1 |  | inactive: -1.36
